Results published in the supplement of paper PMC10849652.
This is one part of the list.

Sequences of proteins named here, by UniProt entry; tags and fusion partners are left off. A change or cut given only in a name is not applied to a line headed by its entry.
UniProt Q9BV68: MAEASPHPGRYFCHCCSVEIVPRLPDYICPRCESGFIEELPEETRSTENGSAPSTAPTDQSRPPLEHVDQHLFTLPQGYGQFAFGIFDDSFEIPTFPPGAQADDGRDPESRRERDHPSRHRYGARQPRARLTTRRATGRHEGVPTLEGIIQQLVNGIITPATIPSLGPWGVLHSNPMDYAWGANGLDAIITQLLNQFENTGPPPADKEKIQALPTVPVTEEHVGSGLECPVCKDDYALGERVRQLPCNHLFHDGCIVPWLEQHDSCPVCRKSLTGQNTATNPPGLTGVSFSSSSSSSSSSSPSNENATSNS
UniProt Q5TBB1: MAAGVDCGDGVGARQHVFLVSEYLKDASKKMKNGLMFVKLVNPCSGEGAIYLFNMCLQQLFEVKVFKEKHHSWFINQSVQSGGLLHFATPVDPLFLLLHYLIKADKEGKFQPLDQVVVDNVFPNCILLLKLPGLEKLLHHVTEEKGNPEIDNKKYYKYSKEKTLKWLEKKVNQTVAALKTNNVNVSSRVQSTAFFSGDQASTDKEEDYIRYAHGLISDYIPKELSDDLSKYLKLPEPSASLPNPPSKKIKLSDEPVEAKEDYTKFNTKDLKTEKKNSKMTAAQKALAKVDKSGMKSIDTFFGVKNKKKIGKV
UniProt Q96PM5: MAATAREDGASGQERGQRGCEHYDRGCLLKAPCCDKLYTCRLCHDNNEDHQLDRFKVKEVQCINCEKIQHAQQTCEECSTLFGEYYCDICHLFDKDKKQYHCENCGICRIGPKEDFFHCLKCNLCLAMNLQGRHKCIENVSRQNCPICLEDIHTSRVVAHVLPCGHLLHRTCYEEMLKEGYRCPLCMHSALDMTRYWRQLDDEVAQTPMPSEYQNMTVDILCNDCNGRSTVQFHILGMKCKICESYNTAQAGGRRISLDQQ
UniProt Q96TC7: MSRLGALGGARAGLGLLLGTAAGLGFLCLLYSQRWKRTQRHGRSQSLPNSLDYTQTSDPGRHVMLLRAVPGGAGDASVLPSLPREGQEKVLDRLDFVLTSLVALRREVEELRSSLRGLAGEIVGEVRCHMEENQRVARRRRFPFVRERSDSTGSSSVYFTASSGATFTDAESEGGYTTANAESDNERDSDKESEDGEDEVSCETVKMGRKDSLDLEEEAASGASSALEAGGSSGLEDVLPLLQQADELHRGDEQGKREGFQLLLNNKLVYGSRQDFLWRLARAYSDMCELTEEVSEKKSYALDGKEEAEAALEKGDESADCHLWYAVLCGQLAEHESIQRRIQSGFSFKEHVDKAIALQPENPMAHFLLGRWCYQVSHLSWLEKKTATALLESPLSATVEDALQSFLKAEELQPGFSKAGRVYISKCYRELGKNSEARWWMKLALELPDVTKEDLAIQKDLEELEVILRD
UniProt Q9HBH5: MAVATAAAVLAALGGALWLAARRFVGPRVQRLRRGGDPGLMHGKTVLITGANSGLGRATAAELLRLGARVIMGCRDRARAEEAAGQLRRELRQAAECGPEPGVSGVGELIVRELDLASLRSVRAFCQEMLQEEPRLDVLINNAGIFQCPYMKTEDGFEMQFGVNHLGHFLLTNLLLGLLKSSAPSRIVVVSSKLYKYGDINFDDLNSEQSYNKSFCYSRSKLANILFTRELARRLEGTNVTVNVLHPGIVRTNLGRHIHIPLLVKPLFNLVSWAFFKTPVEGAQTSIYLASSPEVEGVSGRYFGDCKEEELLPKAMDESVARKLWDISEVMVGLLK
UniProt Q8TAC1: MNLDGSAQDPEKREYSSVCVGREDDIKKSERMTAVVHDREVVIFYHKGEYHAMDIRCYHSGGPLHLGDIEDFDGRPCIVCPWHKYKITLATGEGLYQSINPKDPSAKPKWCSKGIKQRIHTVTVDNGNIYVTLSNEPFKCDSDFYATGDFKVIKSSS
UniProt Q969G6: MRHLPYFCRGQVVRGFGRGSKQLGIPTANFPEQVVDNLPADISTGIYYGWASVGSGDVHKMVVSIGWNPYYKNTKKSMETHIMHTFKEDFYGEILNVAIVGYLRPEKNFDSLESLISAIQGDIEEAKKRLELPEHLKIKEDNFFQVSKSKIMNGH
UniProt Q8NC42: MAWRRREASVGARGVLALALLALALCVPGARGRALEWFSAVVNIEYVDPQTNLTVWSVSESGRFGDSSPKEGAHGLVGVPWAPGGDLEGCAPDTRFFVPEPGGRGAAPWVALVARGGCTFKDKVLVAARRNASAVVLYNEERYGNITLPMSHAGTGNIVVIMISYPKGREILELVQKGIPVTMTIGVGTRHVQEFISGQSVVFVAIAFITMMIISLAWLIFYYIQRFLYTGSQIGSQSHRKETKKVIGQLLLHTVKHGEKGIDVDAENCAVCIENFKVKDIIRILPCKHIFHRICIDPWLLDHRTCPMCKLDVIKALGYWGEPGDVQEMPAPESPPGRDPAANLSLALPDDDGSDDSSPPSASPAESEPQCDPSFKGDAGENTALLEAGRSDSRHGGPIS
UniProt Q8IXI1, whole entry, looked up: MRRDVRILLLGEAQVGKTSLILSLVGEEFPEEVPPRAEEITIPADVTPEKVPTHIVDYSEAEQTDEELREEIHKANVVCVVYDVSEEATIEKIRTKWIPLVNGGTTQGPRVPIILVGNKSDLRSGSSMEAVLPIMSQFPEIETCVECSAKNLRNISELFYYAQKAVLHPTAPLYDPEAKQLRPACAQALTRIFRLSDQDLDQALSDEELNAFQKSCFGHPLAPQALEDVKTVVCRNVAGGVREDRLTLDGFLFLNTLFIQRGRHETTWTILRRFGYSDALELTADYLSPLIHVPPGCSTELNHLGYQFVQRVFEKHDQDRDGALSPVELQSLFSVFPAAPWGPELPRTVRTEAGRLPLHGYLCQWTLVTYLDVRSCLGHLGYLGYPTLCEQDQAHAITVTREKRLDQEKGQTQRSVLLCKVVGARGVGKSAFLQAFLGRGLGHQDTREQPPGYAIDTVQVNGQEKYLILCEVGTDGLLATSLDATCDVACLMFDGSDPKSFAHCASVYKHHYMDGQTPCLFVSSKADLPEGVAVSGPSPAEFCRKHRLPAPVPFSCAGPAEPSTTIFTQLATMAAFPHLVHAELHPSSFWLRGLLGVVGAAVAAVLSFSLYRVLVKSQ
UniProt P35250, whole entry, looked up: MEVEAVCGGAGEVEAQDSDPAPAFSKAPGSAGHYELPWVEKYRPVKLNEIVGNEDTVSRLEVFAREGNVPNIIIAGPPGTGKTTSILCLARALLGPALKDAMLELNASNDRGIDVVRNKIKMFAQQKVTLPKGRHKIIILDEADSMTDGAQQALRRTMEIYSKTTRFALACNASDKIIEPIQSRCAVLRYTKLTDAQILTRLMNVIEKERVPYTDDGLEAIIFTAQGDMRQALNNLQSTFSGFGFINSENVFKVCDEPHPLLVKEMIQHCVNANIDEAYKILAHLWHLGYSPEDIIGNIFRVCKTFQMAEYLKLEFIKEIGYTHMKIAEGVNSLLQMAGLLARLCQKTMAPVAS
UniProt P08134, whole entry, looked up: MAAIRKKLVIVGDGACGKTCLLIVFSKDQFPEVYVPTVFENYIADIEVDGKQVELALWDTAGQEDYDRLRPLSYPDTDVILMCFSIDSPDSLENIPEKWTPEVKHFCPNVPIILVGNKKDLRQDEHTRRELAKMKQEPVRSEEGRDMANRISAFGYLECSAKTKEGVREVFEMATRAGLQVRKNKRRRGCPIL
UniProt Q96NA2: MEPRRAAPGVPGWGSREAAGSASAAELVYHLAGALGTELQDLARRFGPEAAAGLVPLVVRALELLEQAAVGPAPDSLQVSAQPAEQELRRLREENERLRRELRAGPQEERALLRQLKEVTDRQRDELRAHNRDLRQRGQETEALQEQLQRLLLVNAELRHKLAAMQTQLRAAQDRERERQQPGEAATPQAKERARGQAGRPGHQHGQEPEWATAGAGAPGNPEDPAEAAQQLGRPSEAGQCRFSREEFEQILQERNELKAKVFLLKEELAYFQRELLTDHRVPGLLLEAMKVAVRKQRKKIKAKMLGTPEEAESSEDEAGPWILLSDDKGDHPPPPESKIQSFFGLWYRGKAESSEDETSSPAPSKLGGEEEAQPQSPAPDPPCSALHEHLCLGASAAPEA
UniProt P38159: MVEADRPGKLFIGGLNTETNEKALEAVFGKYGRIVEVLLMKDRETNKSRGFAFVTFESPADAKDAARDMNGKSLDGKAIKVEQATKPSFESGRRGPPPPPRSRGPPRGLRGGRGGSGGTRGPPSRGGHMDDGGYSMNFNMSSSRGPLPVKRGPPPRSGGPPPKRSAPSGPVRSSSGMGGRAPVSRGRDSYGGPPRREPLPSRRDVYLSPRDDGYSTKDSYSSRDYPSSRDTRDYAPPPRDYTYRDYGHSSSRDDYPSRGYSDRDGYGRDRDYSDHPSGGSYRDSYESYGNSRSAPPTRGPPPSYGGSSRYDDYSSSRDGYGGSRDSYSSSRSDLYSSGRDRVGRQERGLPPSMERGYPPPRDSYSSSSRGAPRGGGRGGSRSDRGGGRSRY
UniProt P35241, whole entry, looked up: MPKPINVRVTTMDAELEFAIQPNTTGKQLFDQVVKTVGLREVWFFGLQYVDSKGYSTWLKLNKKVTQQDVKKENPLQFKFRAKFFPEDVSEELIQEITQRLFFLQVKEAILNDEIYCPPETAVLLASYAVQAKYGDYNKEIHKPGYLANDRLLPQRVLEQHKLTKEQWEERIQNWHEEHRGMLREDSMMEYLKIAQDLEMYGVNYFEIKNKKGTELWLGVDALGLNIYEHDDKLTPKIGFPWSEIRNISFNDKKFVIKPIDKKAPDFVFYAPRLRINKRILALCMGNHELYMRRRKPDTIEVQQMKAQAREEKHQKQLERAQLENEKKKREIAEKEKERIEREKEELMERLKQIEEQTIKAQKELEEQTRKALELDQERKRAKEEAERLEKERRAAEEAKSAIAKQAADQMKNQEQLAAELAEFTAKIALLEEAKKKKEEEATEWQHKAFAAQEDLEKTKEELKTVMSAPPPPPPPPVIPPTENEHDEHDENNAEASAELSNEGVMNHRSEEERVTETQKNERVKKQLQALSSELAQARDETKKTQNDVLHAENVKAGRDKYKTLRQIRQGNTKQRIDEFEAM
UniProt Q9BRS2: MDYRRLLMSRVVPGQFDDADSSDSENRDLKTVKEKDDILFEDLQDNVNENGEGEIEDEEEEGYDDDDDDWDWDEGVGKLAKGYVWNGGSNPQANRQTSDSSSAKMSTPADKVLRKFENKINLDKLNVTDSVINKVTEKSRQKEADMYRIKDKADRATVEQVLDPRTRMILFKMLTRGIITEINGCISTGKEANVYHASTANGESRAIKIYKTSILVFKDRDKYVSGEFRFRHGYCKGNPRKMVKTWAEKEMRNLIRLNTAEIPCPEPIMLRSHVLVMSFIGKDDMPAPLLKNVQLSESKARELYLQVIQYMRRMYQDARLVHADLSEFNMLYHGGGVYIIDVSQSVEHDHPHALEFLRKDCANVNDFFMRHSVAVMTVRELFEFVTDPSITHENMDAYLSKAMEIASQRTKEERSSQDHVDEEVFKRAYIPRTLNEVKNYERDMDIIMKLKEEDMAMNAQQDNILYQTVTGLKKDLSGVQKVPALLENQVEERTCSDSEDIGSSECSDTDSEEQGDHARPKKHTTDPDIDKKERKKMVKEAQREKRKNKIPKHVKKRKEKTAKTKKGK

Legend:
Assay in all cases: log2 fold change, soluble protein after heating vs DMSO (PISA); higher = thermal stabilisation; K562 cells, 10 uM, 30 min; active = over 0.2 and 3.5 SD of the protein, either way, in both replicates (recomputed)
[1] = compound: CS(=O)(=O)c1ccc(-c2cnc(N)c(C(=O)Nc3ccccc3)n2)cc1
Procedure, shortened: (§1)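 K562 cells at 2×10^6 cells/mL were treated for 30 min with 10 μM compound, and aliquots were heated for 3 min over 48°C-58°C before pooling. Extraction used PBS with 0.5% NP-40 at 4°C, and soluble protein was the supernatant after 21,000xg for 90 min, measured by TMTpro 16plex LC-MS/MS with channel sums equalised. Thermal stability values, relative to control samples and from duplicates, are log2 fold changes.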

crizotinib = compound: C[C@@H](Oc1cc(-c2cnn(C3CCNCC3)c2)cnc1N)c1c(Cl)ccc(F)c1Cl [crizotinib]
Procedure, shortened: as §1

[2] = compound: C[C@@H]1COCCN1C2=NC(=NC(=C2)C3(CC3)S(=O)(=O)C)C4=C5C=CNC5=CC=C4
Procedure, shortened: as §1

[3] = compound: C[C@H](C1=CC=C(C=C1)C(=O)NC2=C3C=CNC3=NC=C2)N
Procedure, shortened: as §1

duvelisib = compound: C[C@H](Nc1ncnc2nc[nH]c12)c1cc2cccc(Cl)c2c(=O)n1-c1ccccc1 [duvelisib]
Procedure, shortened: as §1

gandotinib = compound: Cc1cc(Nc2cc(CN3CCOCC3)c3nc(C)c(Cc4ccc(Cl)cc4F)n3n2)n[nH]1 [gandotinib]
Procedure, shortened: as §1

tozasertib = compound: Cc1cc(Nc2cc(N3CCN(C)CC3)nc(Sc3ccc(NC(=O)C4CC4)cc3)n2)n[nH]1 [tozasertib]
Procedure, shortened: as §1

[4] = compound: Cc1cc(SCc2sc(-c3ccc(C(F)(F)F)cc3)nc2C)ccc1OCC(=O)O
Procedure, shortened: as §1

doramapimod = compound: Cc1ccc(-n2nc(C(C)(C)C)cc2NC(=O)Nc2ccc(OCCN3CCOCC3)c3ccccc23)cc1 [doramapimod]
Procedure, shortened: as §1

ispinesib = compound: Cc1ccc(C(=O)N(CCCN)[C@@H](c2nc3cc(Cl)ccc3c(=O)n2Cc2ccccc2)C(C)C)cc1 [ispinesib]
Procedure, shortened: as §1

bafetinib = compound: Cc1ccc(NC(=O)c2ccc(CN3CC[C@H](N(C)C)C3)c(C(F)(F)F)c2)cc1Nc1nccc(-c2cncnc2)n1 [bafetinib]
Procedure, shortened: as §1

[5] = compound: Cc1cccc(CC(=O)N2CCc3c2ccc(-c2cn(C)c4ncnc(N)c24)c3F)n1
Procedure, shortened: as §1

nilotinib = compound: Cc1cn(-c2cc(NC(=O)c3ccc(C)c(Nc4nccc(-c5cccnc5)n4)c3)cc(C(F)(F)F)c2)cn1 [nilotinib]
Procedure, shortened: as §1

[6] = compound: Cc1nc(Nc2n[nH]c3c2CN(C(=O)N[C@H](CN(C)C)c2ccccc2)C3(C)C)c2sccc2n1
Procedure, shortened: as §1

dasatinib = compound: Cc1nc(Nc2ncc(C(=O)Nc3c(C)cccc3Cl)s2)cc(N2CCN(CCO)CC2)n1 [dasatinib]
Procedure, shortened: as §1

[7] = compound: Cc1ncc(-c2ccnc(Nc3ccc(S(C)(=O)=O)cc3)n2)n1C(C)C
Procedure, shortened: as §1

[8] = compound: Cn1cc(-c2ccc3c(c2)CCN3C(=O)Cc2cccc(C(F)(F)F)c2)c2c(N)ncnc21
Procedure, shortened: as §1

[9] = compound: Cn1cc(-c2ccc3nnc(C(F)(F)c4ccc5ncccc5c4)n3n2)cn1
Procedure, shortened: as §1

tipifarnib = compound: Cn1cncc1[C@@](N)(c1ccc(Cl)cc1)c1ccc2c(c1)c(-c1cccc(Cl)c1)cc(=O)n2C [tipifarnib]
Procedure, shortened: as §1

mubritinib = compound: FC(F)(F)c1ccc(/C=C/c2nc(COc3ccc(CCCCn4ccnn4)cc3)co2)cc1 [mubritinib]
Procedure, shortened: as §1

Measured: log2 fold change

RNF126 (UniProt Q9BV68)
inactive: [1] 0.037 | crizotinib 0.105 | [2] 0.087 | [3] 0.031 | duvelisib 0.11 | gandotinib 0.142 | tozasertib 0.023 | [4] 0.015 | doramapimod -0.049 | ispinesib 0.034 | bafetinib -0.106 | [5] 0.005 | nilotinib -0.007 | [6] -0.009 | dasatinib 0.06 | [7] -0.014 | [8] 0.038 | [9] -0.07 | tipifarnib -0.077 | mubritinib 0.004

RNASEH2B (UniProt Q5TBB1)
inactive: [1] 0.059 | crizotinib -0.138 | [2] 0.221 | [3] -0.08 | duvelisib 0.094 | gandotinib -0.232 | tozasertib -0.008 | [4] 0.176 | doramapimod -0.044 | ispinesib -0.012 | bafetinib 0.042 | [5] -0.039 | nilotinib -0.045 | [6] 0.042 | dasatinib -0.317 | [7] -0.05 | [8] 0.177 | [9] 0.119 | tipifarnib -0.116 | mubritinib 0.081

RCHY1 (UniProt Q96PM5)
inactive: [1] -0.01 | crizotinib 0.106 | [2] 0.021 | [3] -0.116 | duvelisib -0.013 | gandotinib 0.255 | tozasertib 0.041 | [4] 0.008 | doramapimod -0.037 | ispinesib 0.016 | bafetinib -0.083 | [5] 0.074 | nilotinib -0.052 | [6] 0.004 | dasatinib 0.054 | [7] -0.026 | [8] -0.034 | [9] 0.002 | tipifarnib -0.054 | mubritinib -0.03

RMDN3 (UniProt Q96TC7)
inactive: [1] 0.06 | crizotinib -0.014 | [2] 0.053 | [3] 0.015 | duvelisib 0.04 | gandotinib -0.042 | tozasertib -0.006 | [4] 0.076 | doramapimod 0.078 | ispinesib -0.032 | bafetinib -0.013 | [5] 0.026 | nilotinib -0.011 | [6] -0.03 | dasatinib -0.048 | [7] -0.044 | [8] 0.02 | [9] 0.018 | tipifarnib 0.018 | mubritinib 0.015

RDH14 (UniProt Q9HBH5)
inactive: [1] 0.086 | crizotinib 0.097 | [2] 0.127 | [3] -0.127 | duvelisib 0.207 | gandotinib 0.14 | tozasertib 0.025 | [4] 0.113 | doramapimod 0.007 | ispinesib 0.096 | bafetinib 0.033 | [5] -0.005 | nilotinib 0.22 | [6] 0.009 | dasatinib -0.1 | [7] -0.004 | [8] 0.066 | [9] -0.002 | tipifarnib 0.096 | mubritinib -0.072

RFESD isoform 2 (UniProt Q8TAC1)
inactive: [1] 0.014 | crizotinib -0.047 | [2] 0.088 | [3] -0.005 | duvelisib 0.067 | gandotinib -0.005 | tozasertib -0.053 | [4] 0 | doramapimod -0.102 | ispinesib 0.058 | bafetinib -0.079 | [5] 0.041 | nilotinib 0.007 | [6] -0.009 | dasatinib 0.003 | [7] 0.006 | [8] 0.015 | [9] -0.01 | tipifarnib 0.033 | mubritinib 0.048

Two successive records from above, quoted:
RMDN3 (UniProt Q96TC7)
inactive: [1] 0.06 | crizotinib -0.014 | [2] 0.053 | [3] 0.015 | duvelisib 0.04 | gandotinib -0.042 | tozasertib -0.006 | [4] 0.076 | doramapimod 0.078 | ispinesib -0.032 | bafetinib -0.013 | [5] 0.026 | nilotinib -0.011 | [6] -0.03 | dasatinib -0.048 | [7] -0.044 | [8] 0.02 | [9] 0.018 | tipifarnib 0.018 | mubritinib 0.015

RDH14 (UniProt Q9HBH5)
inactive: [1] 0.086 | crizotinib 0.097 | [2] 0.127 | [3] -0.127 | duvelisib 0.207 | gandotinib 0.14 | tozasertib 0.025 | [4] 0.113 | doramapimod 0.007 | ispinesib 0.096 | bafetinib 0.033 | [5] -0.005 | nilotinib 0.22 | [6] 0.009 | dasatinib -0.1 | [7] -0.004 | [8] 0.066 | [9] -0.002 | tipifarnib 0.096 | mubritinib -0.072

Next part

RFK (UniProt Q969G6)
inactive: [1] 0.041 | crizotinib -0.027 | [2] 0.023 | [3] -0.112 | duvelisib 0.085 | gandotinib 0.072 | tozasertib 0.015 | [4] -0.01 | doramapimod -0.048 | ispinesib 0.094 | bafetinib -0.024 | [5] -0.033 | nilotinib -0.042 | [6] 0.064 | dasatinib 0.027 | [7] 0.036 | [8] 0.063 | [9] -0.037 | tipifarnib -0.083 | mubritinib 0.033

RNF149 (UniProt Q8NC42)
inactive: [1] 0.078 | crizotinib 0.073 | [2] 0.084 | [3] 0.017 | duvelisib 0.031 | gandotinib -0.03 | tozasertib 0.012 | [4] 0.01 | doramapimod -0.029 | ispinesib -0.001 | bafetinib 0.03 | [5] 0.039 | nilotinib -0.021 | [6] -0.004 | dasatinib -0.137 | [7] 0.078 | [8] -0.104 | [9] -0.023 | tipifarnib 0.048 | mubritinib -0.007

RHOT2 (UniProt Q8IXI1)
inactive: [1] 0.054 | crizotinib -0.021 | [2] 0.173 | [3] 0.042 | duvelisib 0.02 | gandotinib -0.095 | tozasertib 0.012 | [4] 0.094 | doramapimod 0.042 | ispinesib -0.123 | bafetinib -0.018 | [5] -0.029 | nilotinib -0.073 | [6] 0.074 | dasatinib -0.098 | [7] 0.023 | [8] 0.021 | [9] -0.029 | tipifarnib -0.076 | mubritinib 0.007

RFC2 (UniProt P35250)
inactive: [1] 0.009 | crizotinib -0.021 | [2] 0.034 | [3] -0.019 | duvelisib 0.053 | gandotinib -0.064 | tozasertib -0.027 | [4] 0.014 | doramapimod -0.005 | ispinesib -0.02 | bafetinib -0.05 | [5] -0.023 | nilotinib -0.073 | [6] -0.035 | dasatinib -0.077 | [7] -0.017 | [8] 0.03 | [9] -0.004 | tipifarnib -0.026 | mubritinib -0.056

RHOC (UniProt P08134)
inactive: [1] -0.03 | crizotinib -0.005 | [2] 0.038 | [3] -0.057 | duvelisib 0.062 | gandotinib -0.059 | tozasertib -0.051 | [4] 0 | doramapimod -0.006 | ispinesib 0.074 | bafetinib -0.021 | [5] -0.013 | nilotinib 0.035 | [6] 0.014 | dasatinib 0.025 | [7] -0.01 | [8] 0.006 | [9] -0.02 | tipifarnib -0.02 | mubritinib 0.021

RILP (UniProt Q96NA2)
inactive: [1] -0.005 | crizotinib -0.007 | [2] 0.125 | [3] -0.072 | duvelisib -0.028 | gandotinib -0.082 | tozasertib 0.023 | [4] 0.061 | doramapimod -0.007 | ispinesib 0.004 | bafetinib -0.088 | [5] -0.006 | nilotinib -0.019 | [6] -0.058 | dasatinib -0.084 | [7] 0.019 | [8] 0.07 | [9] -0.005 | tipifarnib -0.044 | mubritinib 0.076

RBMX (UniProt P38159)
inactive: [1] -0.153 | crizotinib 0.072 | [2] -0.435 | [3] 0.272 | duvelisib -0.069 | gandotinib 0.18 | tozasertib 0.096 | [4] 0.048 | doramapimod 0.045 | ispinesib -0.104 | bafetinib 0.149 | [5] -0.051 | nilotinib 0 | [6] 0.111 | dasatinib 0.204 | [7] 0.093 | [8] -0.201 | [9] -0.173 | tipifarnib 0.177 | mubritinib -0.187

RDX (UniProt P35241)
inactive: [1] -0.024 | crizotinib 0.06 | [2] -0.082 | [3] -0.03 | duvelisib 0.019 | gandotinib 0.017 | tozasertib -0.024 | [4] -0.046 | doramapimod -0.014 | ispinesib 0.103 | bafetinib 0.03 | [5] -0.066 | nilotinib 0.02 | [6] -0.001 | dasatinib 0.069 | [7] 0.012 | [8] 0.006 | [9] -0.026 | tipifarnib -0.009 | mubritinib 0.011

RELN (UniProt P78509)
inactive: [1] -0.001 | crizotinib -0.018 | [2] -0.098 | [3] 0.138 | duvelisib -0.074 | gandotinib 0.091 | tozasertib 0.059 | [4] -0.022 | doramapimod 0.15 | ispinesib 0.042 | bafetinib 0 | [5] -0.042 | nilotinib -0.008 | [6] -0.03 | dasatinib 0.002 | [7] 0.914 | [8] 0.021 | [9] -0.027 | tipifarnib 0.129 | mubritinib -0.116

RIOK1 (UniProt Q9BRS2)
inactive: [1] 0.018 | crizotinib 0.027 | [2] -0.025 | [3] 0.091 | duvelisib 0.013 | gandotinib 0.026 | tozasertib -0.008 | [4] -0.035 | doramapimod 0.016 | ispinesib -0.001 | bafetinib -0.058 | [5] -0.047 | nilotinib 0.022 | [6] 0.044 | dasatinib 0.063 | [7] 0.021 | [8] -0.021 | [9] 0 | tipifarnib 0.015 | mubritinib 0.011
